# Assay results published in the supplement of paper PMC7666118.
# Sequences of proteins named here, by UniProt entry; tags and fusion partners are left off. A change or cut given only in a name is not applied to a line headed by its entry.
# UniProt Q9C0J8: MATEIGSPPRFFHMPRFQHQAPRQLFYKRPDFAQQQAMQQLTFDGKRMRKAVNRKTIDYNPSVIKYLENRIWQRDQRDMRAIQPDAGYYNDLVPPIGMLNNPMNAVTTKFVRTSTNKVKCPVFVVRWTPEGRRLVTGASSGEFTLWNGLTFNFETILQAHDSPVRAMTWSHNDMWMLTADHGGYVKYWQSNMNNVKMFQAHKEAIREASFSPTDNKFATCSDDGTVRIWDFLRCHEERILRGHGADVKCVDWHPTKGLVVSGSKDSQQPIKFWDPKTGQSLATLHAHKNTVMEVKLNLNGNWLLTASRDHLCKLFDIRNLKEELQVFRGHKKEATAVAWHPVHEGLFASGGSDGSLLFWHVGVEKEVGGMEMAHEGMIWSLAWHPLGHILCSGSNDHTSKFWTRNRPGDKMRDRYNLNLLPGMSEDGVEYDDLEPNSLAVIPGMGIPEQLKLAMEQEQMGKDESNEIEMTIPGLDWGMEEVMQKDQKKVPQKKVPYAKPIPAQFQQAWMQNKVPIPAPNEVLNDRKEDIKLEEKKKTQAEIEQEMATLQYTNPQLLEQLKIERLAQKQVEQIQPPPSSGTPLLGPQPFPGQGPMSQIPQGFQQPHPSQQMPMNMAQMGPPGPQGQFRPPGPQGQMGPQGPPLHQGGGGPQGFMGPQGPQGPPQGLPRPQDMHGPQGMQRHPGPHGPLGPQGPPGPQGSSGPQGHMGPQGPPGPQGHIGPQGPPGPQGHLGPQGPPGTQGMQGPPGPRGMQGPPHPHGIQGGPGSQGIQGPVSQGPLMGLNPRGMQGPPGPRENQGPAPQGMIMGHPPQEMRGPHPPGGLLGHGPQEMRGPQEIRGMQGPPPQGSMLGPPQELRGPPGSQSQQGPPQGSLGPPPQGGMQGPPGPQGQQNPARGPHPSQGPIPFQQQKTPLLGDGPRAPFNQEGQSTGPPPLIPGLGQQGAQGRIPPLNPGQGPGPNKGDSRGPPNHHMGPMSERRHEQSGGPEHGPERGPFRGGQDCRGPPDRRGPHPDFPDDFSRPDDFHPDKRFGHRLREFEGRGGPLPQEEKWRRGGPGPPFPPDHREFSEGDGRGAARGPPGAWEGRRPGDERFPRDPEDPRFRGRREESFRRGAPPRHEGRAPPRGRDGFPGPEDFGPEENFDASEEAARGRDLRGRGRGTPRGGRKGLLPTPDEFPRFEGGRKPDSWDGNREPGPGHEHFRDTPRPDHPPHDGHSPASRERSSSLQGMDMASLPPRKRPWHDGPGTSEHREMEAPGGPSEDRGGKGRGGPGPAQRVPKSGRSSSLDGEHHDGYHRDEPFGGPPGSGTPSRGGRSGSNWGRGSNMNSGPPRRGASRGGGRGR
# UniProt Q9BRG1: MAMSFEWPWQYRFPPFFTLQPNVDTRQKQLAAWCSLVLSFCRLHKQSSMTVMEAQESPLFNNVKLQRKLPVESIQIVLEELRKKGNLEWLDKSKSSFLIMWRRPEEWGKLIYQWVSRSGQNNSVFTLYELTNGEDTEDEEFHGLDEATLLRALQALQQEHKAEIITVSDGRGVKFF
# UniProt P27348: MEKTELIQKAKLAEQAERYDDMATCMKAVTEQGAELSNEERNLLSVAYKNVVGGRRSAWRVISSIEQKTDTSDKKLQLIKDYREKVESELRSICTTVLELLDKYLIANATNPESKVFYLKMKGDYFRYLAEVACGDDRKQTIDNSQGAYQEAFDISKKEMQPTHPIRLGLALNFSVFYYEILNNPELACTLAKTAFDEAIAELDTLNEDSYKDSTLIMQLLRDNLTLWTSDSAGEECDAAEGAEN
# UniProt O43167: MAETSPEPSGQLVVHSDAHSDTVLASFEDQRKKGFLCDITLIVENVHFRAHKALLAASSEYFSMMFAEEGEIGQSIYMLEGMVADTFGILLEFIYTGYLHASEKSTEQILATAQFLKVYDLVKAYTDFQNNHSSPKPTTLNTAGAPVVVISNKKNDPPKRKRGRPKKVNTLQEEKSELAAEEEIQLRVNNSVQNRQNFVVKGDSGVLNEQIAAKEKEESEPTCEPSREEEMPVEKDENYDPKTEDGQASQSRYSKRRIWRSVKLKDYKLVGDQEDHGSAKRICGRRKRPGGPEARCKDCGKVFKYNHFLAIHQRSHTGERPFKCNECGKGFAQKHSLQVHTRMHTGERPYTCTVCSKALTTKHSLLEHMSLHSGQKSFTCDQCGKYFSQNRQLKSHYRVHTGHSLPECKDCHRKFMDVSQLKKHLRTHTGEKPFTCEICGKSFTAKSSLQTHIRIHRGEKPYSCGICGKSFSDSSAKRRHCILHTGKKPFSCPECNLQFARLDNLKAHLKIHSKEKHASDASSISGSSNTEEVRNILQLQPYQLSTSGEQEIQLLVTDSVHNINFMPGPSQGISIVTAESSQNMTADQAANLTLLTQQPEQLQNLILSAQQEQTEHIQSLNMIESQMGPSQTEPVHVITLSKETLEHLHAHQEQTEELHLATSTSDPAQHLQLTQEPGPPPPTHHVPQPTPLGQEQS
# UniProt Q9P2S5: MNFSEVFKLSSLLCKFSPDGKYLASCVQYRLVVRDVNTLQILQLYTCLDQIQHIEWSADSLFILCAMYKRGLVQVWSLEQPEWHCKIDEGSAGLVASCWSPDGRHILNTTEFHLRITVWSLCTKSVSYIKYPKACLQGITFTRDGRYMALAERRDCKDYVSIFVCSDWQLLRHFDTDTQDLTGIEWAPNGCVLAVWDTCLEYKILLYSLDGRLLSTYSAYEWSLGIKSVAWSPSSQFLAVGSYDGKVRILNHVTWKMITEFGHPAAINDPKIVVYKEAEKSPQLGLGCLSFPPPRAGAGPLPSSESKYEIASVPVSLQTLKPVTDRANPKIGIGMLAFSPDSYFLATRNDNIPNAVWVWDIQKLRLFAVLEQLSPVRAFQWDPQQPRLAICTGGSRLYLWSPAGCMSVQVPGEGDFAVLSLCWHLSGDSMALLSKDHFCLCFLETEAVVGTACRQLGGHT
# UniProt Q5VVQ6: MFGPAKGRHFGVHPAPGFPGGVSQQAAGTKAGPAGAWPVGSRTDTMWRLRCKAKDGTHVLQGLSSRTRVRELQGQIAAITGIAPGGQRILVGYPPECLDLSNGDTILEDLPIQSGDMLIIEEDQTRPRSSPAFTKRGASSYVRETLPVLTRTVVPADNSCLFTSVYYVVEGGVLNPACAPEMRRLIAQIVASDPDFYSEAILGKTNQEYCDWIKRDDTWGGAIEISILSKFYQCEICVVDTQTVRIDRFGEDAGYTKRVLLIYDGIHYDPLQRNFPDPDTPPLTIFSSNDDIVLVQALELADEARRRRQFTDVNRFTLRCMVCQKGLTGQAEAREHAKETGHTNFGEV
# UniProt Q9P253: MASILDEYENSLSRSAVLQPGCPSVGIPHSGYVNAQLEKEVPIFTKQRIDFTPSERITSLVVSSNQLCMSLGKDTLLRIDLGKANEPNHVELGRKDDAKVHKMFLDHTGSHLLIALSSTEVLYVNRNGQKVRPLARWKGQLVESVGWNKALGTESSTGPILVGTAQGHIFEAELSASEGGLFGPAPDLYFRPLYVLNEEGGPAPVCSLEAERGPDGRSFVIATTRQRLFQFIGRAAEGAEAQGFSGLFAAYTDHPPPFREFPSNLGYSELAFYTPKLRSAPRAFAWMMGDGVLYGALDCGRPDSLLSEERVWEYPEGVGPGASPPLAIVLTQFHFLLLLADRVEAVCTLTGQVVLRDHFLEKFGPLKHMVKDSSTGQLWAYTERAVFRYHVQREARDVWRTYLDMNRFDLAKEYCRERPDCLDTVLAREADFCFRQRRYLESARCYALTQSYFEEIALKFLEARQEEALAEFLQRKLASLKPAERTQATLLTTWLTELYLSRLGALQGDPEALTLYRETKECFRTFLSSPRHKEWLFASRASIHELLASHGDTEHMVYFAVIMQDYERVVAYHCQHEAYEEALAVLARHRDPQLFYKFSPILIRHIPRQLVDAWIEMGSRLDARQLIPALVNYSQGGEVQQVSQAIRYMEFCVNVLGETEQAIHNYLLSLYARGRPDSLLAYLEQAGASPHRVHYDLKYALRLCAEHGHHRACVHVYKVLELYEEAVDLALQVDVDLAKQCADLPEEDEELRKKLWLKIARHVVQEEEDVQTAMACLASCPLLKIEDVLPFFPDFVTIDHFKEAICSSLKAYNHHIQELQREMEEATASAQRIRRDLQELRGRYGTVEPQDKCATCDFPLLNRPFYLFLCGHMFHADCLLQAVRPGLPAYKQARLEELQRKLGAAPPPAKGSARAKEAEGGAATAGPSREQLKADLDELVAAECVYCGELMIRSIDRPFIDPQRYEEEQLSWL
# UniProt Q96K76: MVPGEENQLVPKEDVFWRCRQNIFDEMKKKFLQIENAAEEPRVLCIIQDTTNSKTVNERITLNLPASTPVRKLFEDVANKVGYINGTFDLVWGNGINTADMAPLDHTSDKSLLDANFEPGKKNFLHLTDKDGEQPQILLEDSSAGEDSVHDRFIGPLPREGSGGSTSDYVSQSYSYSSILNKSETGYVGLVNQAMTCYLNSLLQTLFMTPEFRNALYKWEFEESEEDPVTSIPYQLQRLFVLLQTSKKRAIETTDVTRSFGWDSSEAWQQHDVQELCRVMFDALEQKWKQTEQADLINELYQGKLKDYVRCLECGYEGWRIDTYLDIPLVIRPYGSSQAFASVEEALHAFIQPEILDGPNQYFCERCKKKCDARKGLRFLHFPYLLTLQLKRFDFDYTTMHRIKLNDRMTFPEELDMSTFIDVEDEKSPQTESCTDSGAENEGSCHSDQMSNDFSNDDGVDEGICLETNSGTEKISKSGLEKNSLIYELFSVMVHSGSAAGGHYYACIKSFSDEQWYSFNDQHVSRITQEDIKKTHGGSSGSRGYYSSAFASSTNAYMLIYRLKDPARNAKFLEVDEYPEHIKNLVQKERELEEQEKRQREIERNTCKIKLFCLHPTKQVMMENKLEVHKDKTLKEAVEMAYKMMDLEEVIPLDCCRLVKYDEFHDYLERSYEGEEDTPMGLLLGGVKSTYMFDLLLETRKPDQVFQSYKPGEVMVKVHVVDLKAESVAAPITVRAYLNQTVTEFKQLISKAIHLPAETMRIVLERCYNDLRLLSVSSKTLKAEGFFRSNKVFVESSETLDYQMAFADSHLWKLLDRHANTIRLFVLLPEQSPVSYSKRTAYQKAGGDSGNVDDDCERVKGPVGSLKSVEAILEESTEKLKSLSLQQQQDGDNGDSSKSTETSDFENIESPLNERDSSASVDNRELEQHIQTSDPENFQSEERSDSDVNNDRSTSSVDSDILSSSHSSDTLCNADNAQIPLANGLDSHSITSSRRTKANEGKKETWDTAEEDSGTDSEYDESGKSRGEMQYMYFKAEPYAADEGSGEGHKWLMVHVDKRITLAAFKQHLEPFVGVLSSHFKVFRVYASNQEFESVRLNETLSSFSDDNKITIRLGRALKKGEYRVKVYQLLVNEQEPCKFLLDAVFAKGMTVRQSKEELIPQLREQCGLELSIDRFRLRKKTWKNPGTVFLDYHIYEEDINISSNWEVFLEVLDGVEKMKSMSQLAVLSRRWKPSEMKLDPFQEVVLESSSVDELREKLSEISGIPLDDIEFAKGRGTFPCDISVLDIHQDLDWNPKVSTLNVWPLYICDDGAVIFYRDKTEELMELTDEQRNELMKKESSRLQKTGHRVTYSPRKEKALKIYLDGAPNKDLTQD
# UniProt A8MPS7: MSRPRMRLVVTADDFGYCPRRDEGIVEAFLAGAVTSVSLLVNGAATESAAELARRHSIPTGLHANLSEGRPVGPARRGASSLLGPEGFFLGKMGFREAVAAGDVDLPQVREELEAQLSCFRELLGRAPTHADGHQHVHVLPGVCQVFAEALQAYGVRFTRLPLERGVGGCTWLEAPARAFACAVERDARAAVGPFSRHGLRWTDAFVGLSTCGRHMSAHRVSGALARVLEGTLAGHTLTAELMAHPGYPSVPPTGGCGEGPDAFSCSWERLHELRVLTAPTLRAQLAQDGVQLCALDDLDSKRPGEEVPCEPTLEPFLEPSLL
# UniProt P61081: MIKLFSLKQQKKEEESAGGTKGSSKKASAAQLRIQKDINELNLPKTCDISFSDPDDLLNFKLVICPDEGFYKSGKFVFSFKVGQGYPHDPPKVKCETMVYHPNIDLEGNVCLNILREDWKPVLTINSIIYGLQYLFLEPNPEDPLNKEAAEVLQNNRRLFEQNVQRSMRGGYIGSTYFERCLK
# UniProt P23381: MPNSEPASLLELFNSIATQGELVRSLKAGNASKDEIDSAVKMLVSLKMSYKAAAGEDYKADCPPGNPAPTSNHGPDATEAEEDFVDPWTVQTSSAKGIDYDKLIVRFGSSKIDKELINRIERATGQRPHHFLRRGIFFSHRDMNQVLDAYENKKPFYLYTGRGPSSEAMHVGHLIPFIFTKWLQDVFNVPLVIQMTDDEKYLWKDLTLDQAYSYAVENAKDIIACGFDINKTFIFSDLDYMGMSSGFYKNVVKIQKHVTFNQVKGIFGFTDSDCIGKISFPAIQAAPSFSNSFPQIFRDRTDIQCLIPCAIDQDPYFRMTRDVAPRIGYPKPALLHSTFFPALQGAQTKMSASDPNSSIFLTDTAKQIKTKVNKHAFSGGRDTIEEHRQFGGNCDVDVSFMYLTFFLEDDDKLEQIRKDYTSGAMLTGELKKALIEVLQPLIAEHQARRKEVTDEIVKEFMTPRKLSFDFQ
# This is one part of the list.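 Rule for the calls: active = dose-dependent thermal stabilisation significant by F-test of dose-response against flat model at 10% FDR; inactive = not significant.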
# Compound: Nc1nc2c(ncn2[C@@H]2O[C@H](COP(=O)(O)OP(=O)(O)OP(=O)(O)O)[C@@H](O)[C@H]2O)c(=O)[nH]1
# Experiment: dose-dependent thermal stabilisation call (2D-TPP, DLPTP, 10% FDR) (binary (1 = stabilised)); higher = stabilised by the compound
# Details: system: Jurkat gel-filtered lysate; concentration range 1-500 µM
row,Target,dose-dependent thermal stabilisation call
1,WDR33 (UniProt Q9C0J8),inactive: 0
2,VPS25 (UniProt Q9BRG1),inactive: 0
3,VPS72 (UniProt Q15906),inactive: 0
4,USP24 (UniProt Q9UPU5),active: 1
5,UBQLN4 (UniProt Q9NRR5),inactive: 0
6,YWHAQ (UniProt P27348),inactive: 0
7,ZBTB24 (UniProt O43167),inactive: 0
8,VPS41 (UniProt P49754),inactive: 0
9,UBXN7 (UniProt O94888),inactive: 0
10,WRAP73 (UniProt Q9P2S5),inactive: 0
11,UBR3 (UniProt Q6ZT12),inactive: 0
12,YOD1 (UniProt Q5VVQ6),inactive: 0
13,ZFAND3 (UniProt Q9H8U3),inactive: 0
14,XPO4 (UniProt Q9C0E2),inactive: 0
15,UROS (UniProt P10746),inactive: 0
16,VLDLR (UniProt P98155),inactive: 0
17,VPS18 (UniProt Q9P253),inactive: 0
18,VPS33A (UniProt Q96AX1),inactive: 0

row,Target,dose-dependent thermal stabilisation call
1,USP1 (UniProt O94782),inactive: 0
2,UVRAG (UniProt Q9P2Y5),inactive: 0
3,USP47 (UniProt Q96K76),inactive: 0
4,UBE2E2 (UniProt Q96LR5),active: 1
5,WRAP53 (UniProt Q9BUR4),inactive: 0
6,UGP2 (UniProt Q16851),inactive: 0
7,UBE2Q1 (UniProt Q7Z7E8),inactive: 0
8,UBQLN1 (UniProt Q9UMX0),inactive: 0
9,UBQLN2 (UniProt Q9UHD9),inactive: 0
10,VTI1B (UniProt Q9UEU0),inactive: 0
11,WASHC2A (UniProt Q641Q2),inactive: 0
12,YDJC (UniProt A8MPS7),inactive: 0
13,UBE2M (UniProt P61081),inactive: 0
14,WDR6 (UniProt Q9NNW5),inactive: 0
15,XRCC1 (UniProt P18887),inactive: 0
16,WARS (UniProt P23381),inactive: 0
17,WASH2P (UniProt Q6VEQ5),inactive: 0
18,WIPF1 (UniProt O43516),inactive: 0

# Three entries from above, tab-delimited:
row	Target	dose-dependent thermal stabilisation call
4	UBE2E2 (UniProt Q96LR5)	active: 1
5	WRAP53 (UniProt Q9BUR4)	inactive: 0
6	UGP2 (UniProt Q16851)	inactive: 0
